According to US20060240026A1, “Preventing and/or remedy hematopoietic tumor” (GREEN PEPTIDE CO., LTD., priority 2003, published 2006):
Part of at least one peptide drawing is inferred or uncertain, most often the ends. Ends that are not written are not given here.

Key:
[1] = tested on: PBMCs of HLA-A24+ patients with hematologic malignancies; test: IFN-γ production by peptide-stimulated patient PBMCs in response to peptide-pulsed C1R-A24 cells; assay type: cell-based, human; set-up: peptide-specific IFN-γ production: unit not given here; conditions: for peptide-specific IFN-γ production: 10 μM peptide in vitro, vs peptide-pulsed C1R-A24, HIV-peptide background subtracted; for Responding case/total (enhancement of IFN-γ production): ten HLA-A24+ patients with hematologic malignancies
Description: The induction of peptide-specific cytotoxic T lymphocytes from PBMCs of a patient with hematologic malignancy was conducted as reported preveously (Non-Patent Reference 5). The following peptides were used to induce cytotoxic T lymphocytes: p56^lck protein-derived peptides (Lck208 (SEQ ID NO: 1), Lck488 (SEQ ID NO: 2) and Lck486 (SEQ ID NO: 3)); SART-1-derived peptide (SART-1690 (SEQ ID NO: 4)); SART-2-derived peptides (SART-293 (SEQ ID NO: 5), SART-2161 (SEQ ID NO: 6) and SART-2899 (SEQ ID NO: 7)); SART-3-derived peptides (SART-3109 (SEQ ID NO: 8) and SART-3315 (SEQ ID NO: 9)); and ART-1-derived peptide (ART-1170 (SEQ ID NO: 10)). All of these peptides are the epithelial cancer-related antigen-derived peptides and have the ability to induce cytotoxic T lymphocytes from PBMCs of an epithelial cancer patient in an HLA-A24 dependent manner (Non-Patent References 3-6 and 12). A human immunodeficiency virus (HIV)-derived peptide (SEQ ID NO: 11) and Epstein-Barr virus (EBV)-derived peptide (SEQ ID NO: 12) were used respectively as a negative control peptide and positive control peptide both of which have an HLA-A24-binding motif. […] PBMCs were prepared from peripheral blood that was collected from a patient with hematologic malignancy using Ficoll-Conray density-gradient centrifugation. The expression of HLA-A24 molecules on PBMCs was determined using flow cytometry by a well known method (Non-Patent Reference 5). The induction of cytotoxic T lymphocytes from PBMCs was conducted as follows. […] The culture medium consisted of 45% RPMI-1640, 45% AIM-V (Invitrogen), 10% FCS, 100 U/ml of interleukin-2 (IL-2), and 0.1 mM MEM non-essential amino acid solution (Invitrogen). […] The background IFN-γ production in response to the HIV-derived peptide (SEQ ID NO: 11) was subtracted from the values given in the data. When the mean value of the IFN-γ produced from the peptide-stimulated PBMCs in response to a corresponding peptide was higher than that produced in response to the HIV peptide (SEQ ID NO: 11), it was judged that the precursor of a peptide-specific cytotoxic T lymphocyte was present in the PBMCs and that the peptide-specific cytotoxic T lymphocytes were induced by the peptide. PBMCs of ten cases of HLA-A24^+ patients with hematologic malignancies (two cases with CLL, one case with MCL, one case with NHL, one case with B-ALL, one case with MM, one case with MDS, two cases with ATL, and one case with T-ALL) were tested for the induction of cytotoxic T lymphocytes using peptides that were derived from p56^lck protein, SART-1, SART-2, SART-3 and ART-1. The peptides used were the peptides that induced peptide-specific tumor-reactive cytotoxic T lymphocytes from PBMCs of an HLA-A24^+ epithelial cancer patient, which are currently on clinical trials for use as vaccines for epithelial cancer patients. The PBMCs were stimulated with the peptide in vitro to measure the peptide-specific IFN-γ production.

[2] = tested on: C1R-A24 cells pulsed with the peptides; test: Cytotoxic activity of PBMCs of vaccinated chronic lymphocytic leukemia patient (51Cr-release); assay type: in vivo, human; conditions: CLL patient No. 1, PBMCs after vaccination, 51Cr-release test
From the text: Two kinds of emulsions prepared using these peptides according to the methods described in Example 5 were vaccinated to the patient by injecting subcutaneously at different sites of the patient's lateral thigh.

Sequence	peptide-specific IFN-γ production ([1]; PBMCs of patient #1 CLL)	peptide-specific IFN-γ production ([1]; PBMCs of patient #2 CLL)	peptide-specific IFN-γ production ([1]; PBMCs of patient #3 MCL)	peptide-specific IFN-γ production ([1]; PBMCs of patient #4 NHL)	peptide-specific IFN-γ production ([1]; PBMCs of patient #5 B-ALL)	peptide-specific IFN-γ production ([1]; PBMCs of patient #6 MM)	peptide-specific IFN-γ production ([1]; PBMCs of patient #7 MDS)	peptide-specific IFN-γ production ([1]; PBMCs of patient #8 ATL)	peptide-specific IFN-γ production ([1]; PBMCs of patient #9 ATL)	peptide-specific IFN-γ production ([1]; PBMCs of patient #10 T-ALL)	Responding case/total (enhancement of IFN-γ production) [1]	Responding case/total (enhancement of IFN-γ production) ([1]; listed as HIV-derived peptide)	cytotoxic activity against peptide-pulsed C1R-A24 cells versus cells pulsed with HIV-derived peptide [2]
RYLRDQQLLGI [HIV, reference compound]	0	71	8	0	0	0	9	0	0	2	0/10	did not induce IFN-γ production in any case	–
VYDYNCHVDL [SART-3109]	–	–	–	–	–	–	–	–	–	–	–	–	higher cytotoxic activity
